Assay [1] deals with T1, FLAG-tagged CRTC2 (CREB-regulated transcriptional coactivator 2) (UniProt Q53ET0).
T1 sequence: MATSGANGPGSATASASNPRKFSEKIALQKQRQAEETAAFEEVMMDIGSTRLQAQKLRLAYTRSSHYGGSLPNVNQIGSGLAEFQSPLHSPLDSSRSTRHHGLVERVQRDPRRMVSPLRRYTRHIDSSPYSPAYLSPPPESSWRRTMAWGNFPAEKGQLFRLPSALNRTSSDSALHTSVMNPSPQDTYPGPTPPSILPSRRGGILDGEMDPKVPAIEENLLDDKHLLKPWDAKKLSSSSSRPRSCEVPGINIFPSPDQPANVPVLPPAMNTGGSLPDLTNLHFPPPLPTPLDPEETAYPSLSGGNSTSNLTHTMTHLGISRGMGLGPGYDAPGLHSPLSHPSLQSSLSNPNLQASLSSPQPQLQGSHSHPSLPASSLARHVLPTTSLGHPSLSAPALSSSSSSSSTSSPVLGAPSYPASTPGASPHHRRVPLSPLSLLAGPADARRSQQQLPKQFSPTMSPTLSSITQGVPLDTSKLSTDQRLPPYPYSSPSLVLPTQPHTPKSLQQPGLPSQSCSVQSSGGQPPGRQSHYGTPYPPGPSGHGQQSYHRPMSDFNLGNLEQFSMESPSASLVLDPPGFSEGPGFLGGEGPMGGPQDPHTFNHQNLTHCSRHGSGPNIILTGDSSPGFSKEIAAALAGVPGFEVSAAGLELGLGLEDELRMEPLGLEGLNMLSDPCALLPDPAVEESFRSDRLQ
As to the kind of experiment: co-IP; 293T cells transfected; lysis in 50 mM HEPES pH 8.0, 150 mM NaCl, 0.5% Triton-X 100; anti-FLAG affinity gel for 6 h, rinsed four times in lysis buffer; western blotting. A general note: A western blot detects proteins with antibodies after separation by electrophoresis.

By UniProt entry, the sequences of proteins in these tests, tags left out.
UniProt P42227: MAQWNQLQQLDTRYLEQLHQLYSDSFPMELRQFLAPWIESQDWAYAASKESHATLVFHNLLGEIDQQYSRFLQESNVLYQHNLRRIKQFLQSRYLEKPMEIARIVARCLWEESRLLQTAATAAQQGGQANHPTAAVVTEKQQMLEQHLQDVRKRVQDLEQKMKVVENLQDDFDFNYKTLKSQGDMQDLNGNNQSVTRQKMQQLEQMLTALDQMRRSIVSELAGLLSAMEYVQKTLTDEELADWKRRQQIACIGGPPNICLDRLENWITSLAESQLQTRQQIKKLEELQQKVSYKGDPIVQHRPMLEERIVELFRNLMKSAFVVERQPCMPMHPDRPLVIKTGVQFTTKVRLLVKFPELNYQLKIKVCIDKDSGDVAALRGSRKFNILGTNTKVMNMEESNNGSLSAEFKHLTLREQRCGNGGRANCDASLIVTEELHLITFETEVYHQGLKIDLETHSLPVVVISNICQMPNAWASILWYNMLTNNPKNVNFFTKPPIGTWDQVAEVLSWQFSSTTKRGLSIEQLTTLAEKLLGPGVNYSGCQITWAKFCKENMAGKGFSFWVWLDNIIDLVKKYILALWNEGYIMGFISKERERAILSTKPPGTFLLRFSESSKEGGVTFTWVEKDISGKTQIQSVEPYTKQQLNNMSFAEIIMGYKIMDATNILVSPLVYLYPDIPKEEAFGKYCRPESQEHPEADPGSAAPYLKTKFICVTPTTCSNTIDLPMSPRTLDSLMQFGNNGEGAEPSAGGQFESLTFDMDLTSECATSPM

The target in assay [2] is T2, FLAG-tagged CRTC3 (CREB-regulated transcriptional coactivator 3) (UniProt Q6UUV7).
T2 sequence: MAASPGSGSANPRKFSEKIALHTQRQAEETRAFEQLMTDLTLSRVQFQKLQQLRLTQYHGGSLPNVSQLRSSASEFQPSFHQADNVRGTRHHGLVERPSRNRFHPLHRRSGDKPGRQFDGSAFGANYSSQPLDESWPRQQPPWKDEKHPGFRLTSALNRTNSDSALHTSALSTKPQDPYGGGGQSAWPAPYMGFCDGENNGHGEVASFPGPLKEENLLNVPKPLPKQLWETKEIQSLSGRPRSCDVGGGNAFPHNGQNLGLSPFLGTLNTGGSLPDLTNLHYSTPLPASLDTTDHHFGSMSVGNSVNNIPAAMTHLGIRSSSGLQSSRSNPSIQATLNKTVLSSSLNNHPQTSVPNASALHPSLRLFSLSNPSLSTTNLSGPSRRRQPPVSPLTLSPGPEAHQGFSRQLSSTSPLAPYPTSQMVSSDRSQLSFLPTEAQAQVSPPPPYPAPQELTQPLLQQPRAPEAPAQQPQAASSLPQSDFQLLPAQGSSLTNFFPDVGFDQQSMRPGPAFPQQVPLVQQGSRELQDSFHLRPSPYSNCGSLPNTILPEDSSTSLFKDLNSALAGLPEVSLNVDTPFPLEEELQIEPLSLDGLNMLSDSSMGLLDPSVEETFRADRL
The assay is described as above.

No constants are given. Whether binding was seen depends on the method and setting. Binding seen in cells or lysates may run through a third protein. Some entries that bind do so weakly or less than the wild type. Where a sequence is shown, tags or fusion partners need not be part of it.

Regarding “STAT3 (signal transducer and activator of transcription 3) (from UniProt P42227 1-770)”, the binding entry in assay [1] and in assay [2] was “binds” throughout.

These data come from publication PMC5108339.
